In the supplement of paper PMC12889115:
The other results are listed elsewhere or left out. These are raw signals, not scaled to a control.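 First-pass screen: polymyxin B was added at a level that permeabilizes the Salmonella outer membrane while sparing the inner membrane. DMSO wells, with and without polymyxin B, defined maximum growth. Because plates differed from one another, each plate's data were ranked separately and the compounds with the lowest OD600 were carried forward as hits.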

Tested on: Salmonella enterica serovar Typhimurium SL1344
Experiment: bacterial growth OD600 after 18 h with compound and polymyxin B; higher = more bacterial growth (less inhibition)
Settings: 50 µM, Mueller-Hinton broth

COC(=O)[C@@H](C)Nc1ccc(-c2nc(COc3ccccc3)no2)cn1
bacterial growth OD600 (polymyxin B 1 µg/mL): 0.859

CC(=O)c1cc(C(=O)N2CCCC(C(=O)c3cccc(C(F)(F)F)c3)C2)cs1 (stereo not drawn)
bacterial growth OD600 (polymyxin B 1 µg/mL): 0.853

COC(=O)CCC(=O)N1CCc2[nH]nc(-c3ccc4c(c3)OCO4)c2C1
bacterial growth OD600 (polymyxin B 0.75 µg/mL): 0.847

COc1cc(NC(=O)CCC2CCCN(C(=O)CC3=CCCCC3)C2)cc(OC)c1 (stereo not drawn)
bacterial growth OD600 (polymyxin B 1 µg/mL): 0.675

Cc1cc2nc(N3CCC(N(C)Cc4ccco4)CC3)nc(C)c2cc1C
bacterial growth OD600 (polymyxin B 0.75 µg/mL): 0.83

O=C(C1CCOCC1)N1CCCC(CCc2ccccc2F)C1 (stereo not drawn)
bacterial growth OD600 (polymyxin B 0.75 µg/mL): 0.749

O=C(Nc1cccs1)NC1CCCN(C2CCCCCC2)C1 (stereo not drawn)
bacterial growth OD600 (polymyxin B 1 µg/mL): 1.05

Cc1noc(C)c1S(=O)(=O)NCc1cccnc1N1CCCCCCC1
bacterial growth OD600 (polymyxin B 1 µg/mL): 0.752

CC1(C)Cc2nc(C(C)(C)C)ncc2C(NS(=O)(=O)c2cccnc2)C1 (stereo not drawn)
bacterial growth OD600 (polymyxin B 1 µg/mL): 0.871

C=CCC(=O)N1CCC2(CCCN(Cc3ccc(F)cc3)C2=O)C1 (stereo not drawn)
bacterial growth OD600 (polymyxin B 1 µg/mL): 1.05

COCc1ccc(C(=O)Nc2ccc(-c3nc(CNC(=O)c4cc(C)on4)c(C)o3)cc2)o1
bacterial growth OD600 (polymyxin B 0.75 µg/mL): 0.781

CCN(CC)c1ccc(C(=O)N2CCCCC2CCn2cccn2)cn1 (stereo not drawn)
bacterial growth OD600 (polymyxin B 1 µg/mL): 0.004

C=C(C)CN(C)CC1(O)CCCN(Cc2ccc(F)cc2)C1=O (stereo not drawn)
bacterial growth OD600 (polymyxin B 1 µg/mL): 0.999

CCN1CCC(C(=O)NC2CCCN(C3CCCCCC3)C2)CC1 (stereo not drawn)
bacterial growth OD600 (polymyxin B 1 µg/mL): 0.836

c1cc(C2CCCCC2)ccc1-c1cnnc(N2CCOCC2)n1
bacterial growth OD600 (polymyxin B 0.75 µg/mL): -0.001

Cc1ccc(F)c(CNC(=O)C2CC(Cc3cccc(F)c3)=NO2)c1F (stereo not drawn)
bacterial growth OD600 (polymyxin B 0.75 µg/mL): 0.637

COc1ccc(O)c(CN2CCC(C(Cc3ccccc3F)N(C)Cc3cn(C)nc3C)CC2)c1 (stereo not drawn)
bacterial growth OD600 (polymyxin B 0.75 µg/mL): 0.86

O=C(c1ccc(-c2ccccc2)cc1)C1CCCN(Cc2cccnc2)C1 (stereo not drawn)
bacterial growth OD600 (polymyxin B 1 µg/mL): 0.068

Cc1ccc2c(c1)CN(Cc1cc[nH]n1)CC(c1ccsc1)O2 (stereo not drawn)
bacterial growth OD600 (polymyxin B 0.75 µg/mL): 0.895

CCOC(=O)C1(Cc2ccc(Cl)cc2)CCN(C(=O)C(=O)c2ccccc2)CC1
bacterial growth OD600 (polymyxin B 0.75 µg/mL): 0.352

CN(C(=O)c1ccco1)C(Cc1ccc(F)cc1F)C1CCN(Cc2ccc3c(c2)CCO3)CC1 (stereo not drawn)
bacterial growth OD600 (polymyxin B 0.75 µg/mL): 0.575

c1csc(CN2CCc3[nH]nc(-c4ccc5c(c4)OCO5)c3C2)c1
bacterial growth OD600 (polymyxin B 0.75 µg/mL): 0.772

COc1cccc(-n2cc(CN(C)C(=O)c3cn(CC4CCCO4)nn3)cn2)c1 (stereo not drawn)
bacterial growth OD600 (polymyxin B 1 µg/mL): 1.03

O=C1CCC(C(=O)N2CCCC(CCc3ccccc3F)C2)=NN1 (stereo not drawn)
bacterial growth OD600 (polymyxin B 0.75 µg/mL): 0.786

Cc1nc(N(C)C2CCCCC2)ncc1C(C)NC(=O)c1ccco1 (stereo not drawn)
bacterial growth OD600 (polymyxin B 1 µg/mL): 0.797

CN(CCN1CCOCC1)C(=O)c1ccc2oc(CCCc3ccccc3)nc2c1
bacterial growth OD600 (polymyxin B 1 µg/mL): 0.801

O=C(CC1CCCC1)N1CCC(C2(c3cccnc3)NC(=O)N(Cc3ccsc3)C2=O)CC1 (stereo not drawn)
bacterial growth OD600 (polymyxin B 0.75 µg/mL): 0.831

O=C(NCc1cccs1)c1cc(COc2cccc(F)c2)[nH]n1
bacterial growth OD600 (polymyxin B 1 µg/mL): 0.74

CN(Cc1cc(-c2ccccc2)no1)C(=O)Cn1nnnc1CN1CCCC1
bacterial growth OD600 (polymyxin B 0.75 µg/mL): 0.801

Cc1oc(-c2ccccc2NC(=O)CC2CCCC2)nc1CNC(=O)c1cccc(Cl)c1F
bacterial growth OD600 (polymyxin B 0.75 µg/mL): 0.718

Cc1occc1C(=O)NCc1cccnc1N1CCOCC1
bacterial growth OD600 (polymyxin B 1 µg/mL): 0.929

CCOC(=O)N1CCN(Cc2nc(NC(C)c3ccc(F)cc3)c3ccccc3n2)CC1 (stereo not drawn)
bacterial growth OD600 (polymyxin B 0.75 µg/mL): 0.897

CCC1CN(CCNC(=O)CCc2cccs2)Cc2cc(OC)ccc2O1 (stereo not drawn)
bacterial growth OD600 (polymyxin B 0.75 µg/mL): 0.69
